The text below walks through data of publication PMC9977449, “Discovery of lipid-mediated protein–protein interactions in living cells using metabolic labeling with photoactivatable clickable probes†” (Chemical Science, 2023).

These are yes or no findings as the source states them, for the method shown. Binding seen in cells or lysates may run through a third protein. Some results given as binding are weak or reduced against the parent protein; the word gives no strength.

The test has as its target T1, DDX46-TST, myristoylation-deficient G2A mutant (UniProt Q7L014).
T1 sequence: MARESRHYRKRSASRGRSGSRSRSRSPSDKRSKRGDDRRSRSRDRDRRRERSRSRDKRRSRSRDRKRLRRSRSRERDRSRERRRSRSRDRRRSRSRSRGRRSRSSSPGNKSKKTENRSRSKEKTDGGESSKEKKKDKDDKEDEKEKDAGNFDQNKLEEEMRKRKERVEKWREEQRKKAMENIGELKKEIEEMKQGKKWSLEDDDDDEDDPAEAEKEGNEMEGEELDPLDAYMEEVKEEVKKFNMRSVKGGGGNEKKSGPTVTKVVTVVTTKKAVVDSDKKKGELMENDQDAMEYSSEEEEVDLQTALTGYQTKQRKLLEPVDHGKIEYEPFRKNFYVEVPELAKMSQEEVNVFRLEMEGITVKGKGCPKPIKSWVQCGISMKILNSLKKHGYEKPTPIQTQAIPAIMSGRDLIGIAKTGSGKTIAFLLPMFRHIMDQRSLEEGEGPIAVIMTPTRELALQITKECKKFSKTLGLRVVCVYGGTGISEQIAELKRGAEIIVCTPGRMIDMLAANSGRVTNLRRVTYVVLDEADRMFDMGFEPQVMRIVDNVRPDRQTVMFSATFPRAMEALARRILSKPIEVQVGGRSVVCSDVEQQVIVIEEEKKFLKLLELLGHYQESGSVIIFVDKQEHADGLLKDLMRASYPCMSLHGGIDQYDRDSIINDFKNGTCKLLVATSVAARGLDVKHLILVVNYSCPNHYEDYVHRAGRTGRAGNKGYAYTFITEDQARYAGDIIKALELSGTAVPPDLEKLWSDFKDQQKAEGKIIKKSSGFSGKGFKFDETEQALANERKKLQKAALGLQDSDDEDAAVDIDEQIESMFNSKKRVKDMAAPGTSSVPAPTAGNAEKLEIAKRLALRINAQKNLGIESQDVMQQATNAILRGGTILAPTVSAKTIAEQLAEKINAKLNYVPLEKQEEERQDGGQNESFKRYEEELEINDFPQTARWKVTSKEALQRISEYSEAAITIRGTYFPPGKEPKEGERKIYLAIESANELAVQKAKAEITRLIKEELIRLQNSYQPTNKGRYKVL
In words: co-IP; TST-tagged protein (WT or G2A) transfected in HEK293 cells, captured on Strep-Tactin resin; blot with TRA2B or TOMM40 antibody, signal normalised to the bait's signal.

B1: TRA2B, RNA-binding protein involved in control of pre-mRNA splicing (protein, UniProt P62995 1-288)
chain: MSDSGEQNYGERESRSASRSGSAHGSGKSARHTPARSRSKEDSRRSRSKSRSRSESRSRSRRSSRRHYTRSRSRSRSHRRSRSRSYSRDYRRRHSHSHSPMSTRRRHVGNRANPDPNCCLGVFGLSLYTTERDLREVFSKYGPIADVSIVYDQQSRRSRGFAFVYFENVDDAKEAKERANGMELDGRRIRVDFSITKRPHTPTPGIYMGRPTYGSSRRRDYYDRGYDRGYDDRDYYSRSYRGGGGGGGGWRAAQDRDQIYRRRSPSPYYSRGGYRSRSRSRSYSPRRY
As for B1, the binding result is reported as “binds”.
